The list shows a part of the results. The main result of the screen is listed elsewhere. These columns were measured beside it and carry no call. Most of these compounds were active or inconclusive in the main read-out, so they are no random draw. Words in brackets tell the shape of the fitted curve; partial curves, single points and poor fits give uncertain potencies.
Assay: qHTS Assay for Lipid Storage Modulators in Drosophila S3 Cells;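 on cell number change: cells counted by Cell Tracker Red CMTPX staining in the red channel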
Details: BODIPY lipid droplet fluorescence, 18-24 h; for cell number change: measured here: cell count max response, cells fed with added oleic acid
Summary of the method: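 Laser-scanning cytometry quantifies lipid droplet accumulation (500–530 nm total intensity; droplet/cell object ratio) in oleic acid-fed (400 uM added) Drosophila S3 cells treated with a concentration series. 20 uM Triacsin C defined 100% inhibition.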

[1] = measured here: cell number channel AC50, cells fed with added oleic acid
[2] = measured here: lipid fluorescence (Fed channel) AC50, cells fed with added oleic acid

Compound	cell number change	AC50 [1]	AC50 [2]
Clc1ccccc1OCCN1CCCCC1	-47.4%	23.1 µM [falling, single point]	29.1 µM [falling, single point]
C=CCc1ccc(O)c(-c2ccc(O)c(CC=C)c2)c1	-47.4%	18.4 µM [falling, single point]	18.4 µM [falling, single point]
COc1cc([C@@H]2c3cc4c(cc3[C@H](O)[C@H]3COC(=O)[C@H]23)OCO4)cc(OC)c1OC	-15.4%	–	2.06 µM [falling, single point]
O=c1nc(/C=C/c2ccccc2C(F)(F)F)cc(C(F)(F)F)[nH]1	–	–	0.366 µM [falling, full curve]
O=C(COC(=O)CCSc1ccccc1Cl)NCc1ccco1	-33.9%	–	–
C=CCNC(=S)NNC(=O)c1ccc(Br)o1	-25.2%	–	4.61 µM [rising, partial curve]
O=C(Nc1nc(-c2ccco2)cs1)c1ccccc1	15%	–	–
O=C(/C=C/c1ccccc1)N/C(=C\c1ccco1)C(=O)O	-19.1%	–	5.17 µM [falling, full curve]
O=C(CS(=O)(=O)c1cn(Cc2ccc(Cl)cc2)c2ccccc12)N1CCOCC1	11.2%	–	14.6 µM [rising, partial curve, poor fit]
COc1cccc(-c2ccc3nnc(SCC(=O)N4CCOCC4)n3n2)c1	-75%	4.61 µM [falling, full curve]	–
CS(=O)(=O)N(CC(=O)N1CCC(C(N)=O)CC1)C1CCCCC1	2.48%	–	0.00651 µM [falling, full curve, poor fit]
O=C1c2ccccc2C(=O)N1c1nc2nccc(-c3ccccc3)n2n1	2.34%	–	0.103 µM [falling, full curve, poor fit]
COC(=O)c1ccc2c(=O)n(CCCCCC(=O)NCCNC(C)=O)c(=O)[nH]c2c1	-48.6%	–	–
CCOC(=O)c1nnn(-c2nonc2-n2cccc2)c1CN1CCC(C)CC1	-10.8%	–	–
Cc1ccc(C(=O)NCCCNC(=O)c2ccc(C)nc2)cc1	10.1%	–	0.206 µM [falling, single point]
COC(=O)C1CCN(C(=O)c2oc3c(Cl)cc(C)cc3c2C)CC1	6.11%	2.91 µM [rising, single point]	–
Cc1onc(-c2ccccc2Cl)c1C(=O)N1CCN(c2ccc(F)cc2)CC1	27.1%	–	–
O=C(Nc1nc(-c2ccc3c(c2)OCO3)cs1)c1ccncc1	-33.7%	11.6 µM [falling, partial curve, poor fit]	16.4 µM [falling, single point]
CNC(=O)COc1coc(CN2CCN(c3ccccc3F)CC2)cc1=O	-0.567%	–	16.4 µM [rising, single point]
N/C(=N\OC(=O)Cc1ccccc1[N+](=O)[O-])c1ccncc1	23.9%	–	18.4 µM [rising, single point]

Compound	cell number change	AC50 [1]	AC50 [2]
C1=C(c2ccccc2)CCN(c2nc3ccccc3n3cnnc23)C1	–	1.46 µM [rising, partial curve]	1.46 µM [rising, full curve]
CC(Oc1ccc2ccc(=O)oc2c1)C(=O)NC1CCN(Cc2ccccc2)CC1 (configuration not stated)	-23.9%	–	0.82 µM [falling, full curve]
CC1CC(C)CN(CC(O)COCc2ccccc2F)C1 (configuration not stated)	11.7%	–	–
Cc1cc(S(=O)(=O)Nc2ccc3ccccc3c2)c(C)s1	-89%	18.4 µM [falling, single point]	23.1 µM [falling, single point]
C/C(CC(=O)NCC(C)C)=N\NC(=O)COc1cc(C)c(Br)cc1Br	1.95%	–	0.58 µM [rising, partial curve, poor fit]
COC(=O)c1sc2nc(-c3ccccc3)nc(N3CCN(C)CC3)c2c1C	-9.51%	–	16.4 µM [falling, single point]
O=C(O)CCSc1nc(C(F)(F)F)cc(=O)n1-c1ccccc1	-27.7%	3.26 µM [falling, full curve, poor fit]	2.31 µM [falling, full curve]
CSc1ccc(NC(=O)Nc2cccn(Cc3ccccc3F)c2=O)cc1	20%	–	29.1 µM [rising, single point]
COc1ccc(C2(CCN=Cc3ccc(N(C)C)cc3)CCOC(C)(C)C2)cc1 (configuration not stated)	15.1%	–	–
O=C(COC(=O)C1=COCCO1)Nc1c(F)cccc1F	-15.5%	–	–
COc1cccc(N(CC(=O)NCCSc2ccccc2)S(C)(=O)=O)c1	-19.2%	0.092 µM [falling, full curve]	23.1 µM [falling, single point]
N#C/C(=N\O)c1nc2ccccc2s1	13.8%	–	–
COCCn1c(N)c(N(Cc2ccccc2)C(=O)COc2ccccc2F)c(=O)[nH]c1=O	-1.38%	0.731 µM [falling, full curve, poor fit]	0.651 µM [rising, full curve, poor fit]
Cc1ccc(/C=N/NC(=O)CN(Cc2ccccc2)S(=O)(=O)c2ccc3c(c2)OCCO3)cc1	32.6%	0.461 µM [rising, partial curve, poor fit]	0.731 µM [rising, single point]
CC1=NCCN1S(=O)(=O)c1cc([N+](=O)[O-])ccc1Cl	-6.05%	–	0.461 µM [falling, full curve, poor fit]
CC(C)c1ccc(/C=C(\NC(=O)c2ccccc2)C(=O)NCCN2CCOCC2)cc1	6.16%	–	0.231 µM [rising, full curve]
COc1cc(SC)ccc1C(=O)N1CCN(Cc2ccc3c(c2)OCO3)CC1	-0.647%	–	29.1 µM [rising, single point]
O=C(Nn1c(SCc2ccccc2F)nc2ccsc2c1=O)c1ccccc1	-45.9%	29.1 µM [falling, single point]	–
CC1=NNC(=O)/C1=C\c1cn(-c2ccccc2)nc1-c1ccc(Cl)cc1	-73.1%	25.9 µM [falling, partial curve]	10.3 µM [falling, partial curve]

A second format for some results above:
COc1cccc(N(CC(=O)NCCSc2ccccc2)S(C)(=O)=O)c1
  cell number change: -19.2%; AC50 [1]: 0.092 µM [falling, full curve]; AC50 [2]: 23.1 µM [falling, single point]
O=C(Nn1c(SCc2ccccc2F)nc2ccsc2c1=O)c1ccccc1
  cell number change: -45.9%; AC50 [1]: 29.1 µM [falling, single point]
